Laboratory results: PubChem BioAssay AID686943 (Drosophila RNAi Screening Center, 2013)
The deposit covers about 23,000 reagents; this is a random part of those with a known target gene and a result. 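Extra replicates exist only for a retested subset of genes; insulin dose and duration not given; both raised and lowered dpERK matter.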 A plus sign joins genes that one reagent is predicted to hit. Not all columns of the deposit are shown. No sequences are given here. The record does not give: the amount of reagent, the time to read-out.

Aim: 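Knockdowns that increase or decrease active ERK after insulin receptor stimulation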 (primary screen)
Cells: Drosophila S2R+ haemocyte-like cells expressing YFP-tagged ERK (Rolled)
Knock-down reagent: long dsRNA against Drosophila genes
Challenge: insulin stimulation versus unstimulated cells; dose and duration not given
Detection: 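Per-plate z-scores of phospho-ERK immunostaining normalised to YFP-tagged ERK, measured with and without insulin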
Reading the numbers: replicate 1, z-score of dpERK with insulin and replicate 2, z-score of dpERK with insulin: higher = more active ERK per ERK-YFP after insulin; replicate 1, z-score of dpERK under basal conditions: higher = more basal active ERK per ERK-YFP

no.	gene	dsRNA	replicate 1, z-score of dpERK with insulin	replicate 2, z-score of dpERK with insulin	replicate 1, z-score of dpERK under basal conditions
1	CG14634	DRSC17944	-1.14	-0.16	-0.05
2	CG10298	DRSC12522	0.5	0.83	2.05
3	Scsalpha2	DRSC16003	0.28	-0.09	-0.4
4	Bbd	DRSC06709	0.2	0.07	1.5
5	Cdk4	DRSC07358	-2.75	-2.56	-2.97
6	Ipk2	DRSC00357	0.52	-1.1	0.82
7	CG34404	DRSC15335	-0.75	0.58	1.47
8	CG34404	DRSC15978	-0.55	-0.36	-0.04
9	CG31835 + CG42585	DRSC01412	-0.82	-0.84	1.38
10	tara	DRSC17076	0.38	0.2	-0.11
11	CG14367	DRSC14829	0.31	0.48	-0.13
12	CG33308	DRSC01419	-1.97	-1.59	1.02
13	Vps16A	DRSC16422	0.92	0.19	1.31
14	CG16826	DRSC02527	1.44	0.82	1.42
15	Alp5	DRSC14269	-0.23	-0.5	0.05
16	Tsp39D	DRSC03099	-0.29	0.32	0.28
17	qless	DRSC15103	-0.39	-0.29	0.58
18	qless	DRSC15507	-0.61	-0.16	0.16
19	CG15136	DRSC02436	0.09	0.46	-0.16
20	5-HT1A	DRSC05030	-0.11	0.1	0.48
21	Ppa	DRSC04598	0.4	-0.83	1.2
22	CG4438	DRSC02746	-0.12	0.77	0.86
23	dpr2	DRSC02370	-0.06	0.35	0.41
24	dpr2	DRSC02371	0.54	0.09	0.21
25	nw	DRSC06451	-0.99	-0.68	0.31
26	nw	DRSC06749	0.09	0.64	0.39
27	nw	DRSC06896	-1.06	-0.34	-0.78
28	sv	DRSC17221	-0.28	0.04	-0.53
29	Swim	DRSC04334	0.49	-0.02	-0.17
30	CG13603	DRSC14606	0.38	0.24	-1.31
31	Hydr1	DRSC07063	-0.22	0.02	0.84
32	CG8188	DRSC20090	0.59	0.7	1.14
33	CG18539	DRSC06766	0.51	0.52	1.13
34	Cyp6w1	DRSC04909	-0.2	0.14	0.05
35	CG15269	DRSC01942	0.79	1.17	1.69
36	Hsepi	DRSC04986	0.83	-0.35	-0.34
37	Cpr50Cb	DRSC06975	0.94	0.65	-0.15
38	CG12576	DRSC20621	-0.25	-0.52	0.38
39	Nubp1	DRSC02639	0.52	-0.1	0.51

3 entries from above, reformatted:
{"gene":"qless","dsRNA":"DRSC15507","replicate 1, z-score of dpERK with insulin":-0.61,"replicate 2, z-score of dpERK with insulin":-0.16,"replicate 1, z-score of dpERK under basal conditions":0.16}
{"gene":"CG15136","dsRNA":"DRSC02436","replicate 1, z-score of dpERK with insulin":0.09,"replicate 2, z-score of dpERK with insulin":0.46,"replicate 1, z-score of dpERK under basal conditions":-0.16}
{"gene":"5-HT1A","dsRNA":"DRSC05030","replicate 1, z-score of dpERK with insulin":-0.11,"replicate 2, z-score of dpERK with insulin":0.1,"replicate 1, z-score of dpERK under basal conditions":0.48}
